Binding data for two substances are collected here from paper PMC10218208.

Protein sequences, listed by entry. Tags and fused reporters are not part of them.
UniProt Q99497: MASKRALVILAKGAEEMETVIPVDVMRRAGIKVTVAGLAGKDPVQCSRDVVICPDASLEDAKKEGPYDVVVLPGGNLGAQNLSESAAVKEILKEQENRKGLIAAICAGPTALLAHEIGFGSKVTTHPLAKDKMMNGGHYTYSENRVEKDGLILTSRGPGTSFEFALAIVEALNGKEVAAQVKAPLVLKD
UniProt P09874: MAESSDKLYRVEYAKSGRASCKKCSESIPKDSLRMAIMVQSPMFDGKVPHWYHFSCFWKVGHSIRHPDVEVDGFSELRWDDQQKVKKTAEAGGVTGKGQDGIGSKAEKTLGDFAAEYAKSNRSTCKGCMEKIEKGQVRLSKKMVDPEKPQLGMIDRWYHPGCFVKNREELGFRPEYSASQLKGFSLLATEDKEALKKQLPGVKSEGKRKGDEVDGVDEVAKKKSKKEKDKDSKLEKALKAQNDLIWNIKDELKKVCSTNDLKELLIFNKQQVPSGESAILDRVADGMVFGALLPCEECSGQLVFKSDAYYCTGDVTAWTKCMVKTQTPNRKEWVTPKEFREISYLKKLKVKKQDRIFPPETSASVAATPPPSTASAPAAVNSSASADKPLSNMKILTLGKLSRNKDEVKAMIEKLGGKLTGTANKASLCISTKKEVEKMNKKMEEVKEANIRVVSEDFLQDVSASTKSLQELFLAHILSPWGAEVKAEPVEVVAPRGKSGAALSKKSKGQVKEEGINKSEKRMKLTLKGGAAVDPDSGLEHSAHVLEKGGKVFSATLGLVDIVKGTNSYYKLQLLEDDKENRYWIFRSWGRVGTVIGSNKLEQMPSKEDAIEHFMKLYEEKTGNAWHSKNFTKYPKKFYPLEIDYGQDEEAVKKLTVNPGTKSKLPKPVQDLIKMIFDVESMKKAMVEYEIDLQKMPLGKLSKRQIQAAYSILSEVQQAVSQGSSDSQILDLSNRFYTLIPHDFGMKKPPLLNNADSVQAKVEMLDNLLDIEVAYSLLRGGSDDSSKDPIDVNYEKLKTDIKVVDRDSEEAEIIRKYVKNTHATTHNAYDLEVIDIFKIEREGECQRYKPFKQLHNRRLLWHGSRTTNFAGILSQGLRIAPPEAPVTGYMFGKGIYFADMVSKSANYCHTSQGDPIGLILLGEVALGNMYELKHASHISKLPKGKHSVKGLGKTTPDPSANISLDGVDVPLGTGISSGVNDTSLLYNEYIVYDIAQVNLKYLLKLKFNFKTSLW

No constants are given. Whether binding was seen depends on the method and setting. In cells and extracts the contact can be indirect. Some entries that bind do so weakly or less than the wild type.

One assay has as its target GST-DJ-1 (UniProt Q99497). Kind of assay: pull-down; purified GST-DJ-1 incubated with Flag-PARP1 expressed from HEK293T cells; Pierce GST Protein Interaction Pull-Down Kit; blot with anti-Flag; only the target purified.
The target in assay [1] is DJ-1 (endogenous) (human (endogenous in HEK293T, U2OS and primary skin fibroblasts)) (UniProt Q99497). Kind of assay: co-IP; endogenous proteins in 293T cells; lysate in IP lysis buffer incubated overnight at 4 °C with antibody-coated Dynabeads Protein G.
Assay [2] has as its target DJ-1 ectopically expressed in HEK293T cells (UniProt Q99497). Kind of assay: co-IP; HEK293T cells ectopically expressing DJ-1; lysate in IP lysis buffer incubated overnight at 4 °C with antibody-coated Dynabeads Protein G; untreated or treated with ETO (10 µM) for the indicated times; Benzonase tested.
The target in assay [3] is DJ-1 (endogenous) (human (endogenous in HEK293T, U2OS and primary skin fibroblasts)) (UniProt Q99497). Kind of assay: proximity ligation; in situ PLA (Duolink) on fixed U2OS cells, endogenous proteins, with and without ETO (10 µM, 30 min for DJ-1/γH2AX).
Assay [4] has the same target. Kind of assay: proximity ligation; in situ PLA (Duolink) on fixed primary human skin fibroblasts, endogenous proteins, with and without ETO (10 µM, 1 h).

With “Flag-PARP1 (from UniProt P09874 1-1014) (enzyme)”, in the assay with GST-DJ-1, the binding entry was “binds”.

With “PARP1 (endogenous) (from UniProt P09874 1-1014) (enzyme)”, the binding result in assay [1], in assay [2], in assay [3] and in assay [4] was “binds” each time.
